{"source": "patent EP2818471A1", "about": "“Nitrogen bicyclic compounds as inhibitors for Scyl1 and Grk5” (Max-Planck-Gesellschaft zur Förderung der Wissenschaften …, priority 2013, dated 2014)", "note": "Some entries share one result that the patent states for a list of compounds."}
{"test_system": "C2C12 cells", "assay": "2-NBDG glucose uptake by flow cytometry", "settings": "C2C12, 1 h compound treatment; Figure 10"}
{"molecule": "NC(=O)c1ccc(-c2cnc3ccc(Cc4ccc(F)cc4)nn23)cc1", "note": "[compound 1, 4-[6-[(4-fluorophenyl)methyl]imidazo[1,2-b]pyridazin-3-yl]benzamide]", "uptake of 2-NBDG compared with negative control background": "significantly higher increase of 2-NBDG uptake"}
{"test_system": "C2C12", "assay": "MTT cytotoxicity assay (cell viability and proliferation)", "type": "cell-based, mouse", "settings": "C2C12, 72 h treatment"}
{"molecule": "NC(=O)c1ccc(-c2cnc3ccc(Cc4ccc(F)cc4)nn23)cc1", "note": "[compound 1, 4-[6-[(4-fluorophenyl)methyl]imidazo[1,2-b]pyridazin-3-yl]benzamide]", "proliferation and viability": "decreased proliferation"}
{"molecule": "Cn1cc(-c2ccc3ncc(-c4cccs4)n3n2)cn1", "note": "[compound 3, 6-(1-methylpyrazol-4-yl)-3-(2-thienyl)imidazo[1,2-b]pyridazine]", "proliferation and viability": "decreased proliferation"}
{"molecule": "COc1cc(-c2ccc3ncc(-c4cccc(C(=O)NCCN(C)C)c4)n3n2)ccc1O", "note": "[compound 4, N-(2-dimethylaminoethyl)-3-[6-(4-hydroxy-3-methoxy-phenyl)imidazo[1,2-b]pyridazin-3-yl]benzamide]", "proliferation and viability": "decreased proliferation"}
{"molecule": "COc1cc(-c2ccc3ncc(-c4cccnc4)n3n2)cc(OC)c1OC", "note": "[compound 10, 3-(3-pyridyl)-6-(3,4,5-trimethoxyphenyl)imidazo[1,2-b]pyridazine]", "proliferation and viability": "less toxicity at a 2 µM treatment"}
{"molecule": "COc1ccc(-c2ccc3ncc(-c4ccncc4)n3n2)cc1OC", "note": "[compound 11, 6-(3,4-dimethoxyphenyl)-3-(4-pyridyl)imidazo[1,2-b]pyridazine]", "proliferation and viability": "less toxicity at a 2 µM treatment"}
